PubChem BioAssay AID1259308 – NCATS | 2017
Purpose: 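Candidate targets for better recombinant protein yield in mammalian cells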 (primary screen). Cell system: human HEK293 embryonic kidney cells stably expressing firefly luciferase (HEK-CMV-Luc2-Hygro). Knock-down reagent: single siRNA against human genes, 0.8 pmol siRNA per well. Duration: 72 h. Measurement: 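Luciferase light (ONE-Glo) measured on one replicate plate set and viability (CellTiter-Glo) on the other, scaled to a negative control siRNA, with robust z-scores and luciferase per cell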. Reading the numbers: total luciferase, z-score and total luciferase, % of control: higher = more reporter protein produced; luciferase per cell, z-score: higher = more reporter output per viable cell; viable cells, % of control: higher = more viable cells. Rule for the call: 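An siRNA counts as active if its total luciferase robust z-score exceeds 3; genes with two or more such siRNAs out of three were retested with fresh siRNAs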. Meaning of the calls: active = raised luciferase; inactive = no rise.
Shown is one part, drawn at random, of about 59,000 deposited reagents. In the full data, about 1,510 (2.6%) are marked active. 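Calls use total luciferase alone and ignore viability, so some active siRNAs may act by altering cell number.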 Reagents against one gene are numbered here. No sequences are given here.

| Target gene | reagent | total luciferase, z-score | total luciferase, % of control | luciferase per cell, z-score | viable cells, % of control | Call |
| --- | --- | --- | --- | --- | --- | --- |
| KCNH5 | 1 | -0.116 | 79.6 | -0.196 | 93.6 | inactive |
| KCNH5 | 2 | -0.135 | 79.2 | -0.526 | 102 | inactive |
| KCNH5 | 3 | -1.43 | 53.4 | 0.00886 | 59.6 | inactive |
| SLC9C2 | 1 | -1.26 | 56.9 | -1.43 | 92.5 | inactive |
| SLC9C2 | 2 | -0.539 | 71.2 | -0.89 | 101 | inactive |
| SLC9C2 | 3 | 0.848 | 98.7 | 1.39 | 76.6 | inactive |
| OR10A3 | 1 | 1.16 | 105 | 1.22 | 85 | inactive |
| OR10A3 | 2 | -1.34 | 55.3 | -1.18 | 84.2 | inactive |
| OR10A3 | 3 | 0.554 | 92.9 | -0.18 | 109 | inactive |
| PROB1 | 1 | -0.27 | 76.5 | 0.345 | 78.1 | inactive |
| PROB1 | 2 | 2.73 | 136 | 2 | 90 | inactive |
| PROB1 | 3 | -0.0676 | 80.5 | 0.386 | 81.3 | inactive |
| TCP11 | 1 | 2.69 | 135 | 2.04 | 88.4 | inactive |
| TCP11 | 2 | -1.65 | 49.1 | -1.11 | 73.5 | inactive |
| TCP11 | 3 | 1.37 | 109 | 0.69 | 102 | inactive |
| NPTX2 | 1 | 0.427 | 90.4 | 1.93 | 60.7 | inactive |
| NPTX2 | 2 | 1.22 | 106 | 1.03 | 90.5 | inactive |
| NPTX2 | 3 | -0.15 | 78.9 | 0.0723 | 86.5 | inactive |
| EIF5A | 1 | -1.25 | 57 | -1.72 | 100 | inactive |
| EIF5A | 2 | 1.35 | 109 | 0.602 | 104 | inactive |
| EIF5A | 3 | 0.21 | 86.1 | -0.231 | 102 | inactive |
| TEKT4P2 | 1 | 1.52 | 112 | 0.11 | 122 | inactive |
| TEKT4P2 | 2 | 0.731 | 96.4 | 0.733 | 88.8 | inactive |
| TEKT4P2 | 3 | -0.226 | 77.4 | -0.637 | 102 | inactive |
| CLEC4E | 1 | 1.85 | 119 | 1.26 | 95.3 | inactive |
| CLEC4E | 2 | -0.716 | 67.6 | -1.03 | 99.1 | inactive |
| CLEC4E | 3 | -0.11 | 79.7 | -0.814 | 110 | inactive |
| ARHGEF7 | 1 | 0.483 | 91.5 | 0.829 | 82.2 | inactive |
| ARHGEF7 | 2 | 1.31 | 108 | 0.363 | 110 | inactive |
| ARHGEF7 | 3 | 0.688 | 95.6 | -0.106 | 110 | inactive |
| OPN5 | 1 | -0.998 | 62 | -0.678 | 82.9 | inactive |
| OPN5 | 2 | -0.54 | 71.1 | -0.722 | 96.1 | inactive |
| OPN5 | 3 | -1.43 | 53.5 | -1.36 | 85.6 | inactive |
| ENAM | 1 | 2.45 | 131 | 2.29 | 79.9 | inactive |
| ENAM | 2 | 1.63 | 114 | 2.08 | 73.8 | inactive |
| ENAM | 3 | -0.872 | 64.6 | -0.47 | 81.6 | inactive |
| PPBPP1 | 1 | 1.69 | 116 | 2.76 | 62.5 | inactive |
| PPBPP1 | 2 | -0.564 | 70.7 | -0.62 | 93 | inactive |
| PPBPP1 | 3 | -0.223 | 77.4 | -0.375 | 95.5 | inactive |
| MYEF2 | 1 | -1.98 | 42.5 | -2.6 | 94.2 | inactive |
| MYEF2 | 2 | -0.043 | 81 | -0.674 | 108 | inactive |
| MYEF2 | 3 | -0.23 | 77.3 | -0.453 | 97.3 | inactive |
| HYOU1 | 1 | 0.226 | 86.4 | 0.523 | 84.1 | inactive |
| HYOU1 | 2 | -1.36 | 54.9 | -0.927 | 78.3 | inactive |
| HYOU1 | 3 | 0.00944 | 82.1 | 0.179 | 87.5 | inactive |
| TBC1D23 | 1 | 0.824 | 98.3 | 0.587 | 94.1 | inactive |
| TBC1D23 | 2 | 0.536 | 92.6 | -0.196 | 109 | inactive |
| TBC1D23 | 3 | 0.208 | 86 | 0.00884 | 95.9 | inactive |

Looked up above.
Entry for SLC9C2 #3 in “total luciferase, % of control”: 98.7
Under “viable cells, % of control”, MYEF2 #3 reads 97.3
Value for OPN5 #3 in “total luciferase, % of control”: 53.5
Result of OR10A3 #1 in “luciferase per cell, z-score”: 1.22
PPBPP1 #3, total luciferase, z-score: -0.223
KCNH5 #3, total luciferase, z-score = -1.43

Continued:
| Target gene | reagent | total luciferase, z-score | total luciferase, % of control | luciferase per cell, z-score | viable cells, % of control | Call |
| --- | --- | --- | --- | --- | --- | --- |
| CCHCR1 | 1 | 0.755 | 96.9 | 2.56 | 55.1 | inactive |
| CCHCR1 | 2 | 1.91 | 120 | 1.3 | 95.2 | inactive |
| CCHCR1 | 3 | -0.00777 | 81.7 | 0.318 | 84 | inactive |
| ANKRD20A12P | 1 | 2.92 | 140 | 2.1 | 90.1 | inactive |
| ANKRD20A12P | 2 | 2.11 | 124 | 2.23 | 77.1 | inactive |
| ANKRD20A12P | 3 | -0.515 | 71.6 | -0.317 | 87 | inactive |
| SMG8 | 1 | 0.556 | 92.9 | -0.0934 | 106 | inactive |
| SMG8 | 2 | 1.21 | 106 | 0.0187 | 118 | inactive |
| SMG8 | 3 | 0.381 | 89.5 | -0.468 | 113 | inactive |
| IREB2 | 1 | -0.0432 | 81 | 0.0827 | 88.6 | inactive |
| IREB2 | 2 | -1.09 | 60.1 | -0.942 | 86.1 | inactive |
| IREB2 | 3 | -0.0227 | 81.4 | 0.329 | 83.4 | inactive |
| EYA4 | 1 | 0.378 | 89.4 | 0.144 | 96.2 | inactive |
| EYA4 | 2 | -0.719 | 67.6 | 0.404 | 67.9 | inactive |
| EYA4 | 3 | 0.744 | 96.7 | 0.945 | 84.2 | inactive |
| LINC01257 | 1 | 0.759 | 97 | 0.432 | 96.7 | inactive |
| LINC01257 | 2 | 3.53 | 152 | 3 | 77.2 | active |
| LINC01257 | 3 | -0.258 | 76.8 | -0.356 | 94.2 | inactive |
| COL5A2 | 1 | 0.674 | 95.3 | 0.494 | 93.5 | inactive |
| COL5A2 | 2 | 0.581 | 93.4 | 0.139 | 101 | inactive |
| COL5A2 | 3 | -0.179 | 78.3 | -0.63 | 103 | inactive |
| REST | 1 | -1.07 | 60.5 | -0.908 | 85.9 | inactive |
| REST | 2 | -0.396 | 74 | -0.252 | 88.4 | inactive |
| REST | 3 | -0.581 | 70.3 | -0.228 | 83.5 | inactive |
| FLJ40288 | 1 | 0.176 | 85.4 | 1.45 | 65.2 | inactive |
| FLJ40288 | 2 | -0.954 | 62.9 | -0.908 | 89.3 | inactive |
| FLJ40288 | 3 | 0.513 | 92.1 | 0.622 | 87.4 | inactive |
